PubChem BioAssay AID686937 – Drosophila RNAi Screening Center, 2013
The screen tested about 23,000 reagents; shown is an unselected part of those with a known target gene and a result. 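Reduced-secretion tags in replicate 1 do not always agree with the z-scores; no criterion for assigning the tags was given.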 Not all columns of the deposit are shown. The record does not give: the amount of reagent.

Screen: 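Genes in the fly needed for secretion of protein constitutively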 (primary screen)
System: Drosophila S2 cells expressing secreted horseradish peroxidase
Reagents: long dsRNA against Drosophila genes
Duration: about 5.5 days (5 days dsRNA, then 12 h reporter induction)
Conditions: reporter expression induced after 5 days of dsRNA, read 12 h later; inducer not stated
Detection: 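Chemiluminescent measurement of peroxidase in the medium 12 h after reporter induction, following 5 days of dsRNA, given as a z-score per plate; higher means more secretion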
Scale: z-score: higher = more reporter secreted into medium

For Cpr78Cc [DRSC11846] the deposit lists z-score, replicate 1 = 0.38.
Cyp6a23 [DRSC07383] showed z-score, replicate 1 = 0.34.
Knock-down of beat-IIIb [DRSC02435] resulted in: z-score, replicate 1 = 0.37.
Silencing of Fkbp59 [DRSC03323] gave: z-score, replicate 1 = 0.17.
For Strica [DRSC04920], the entry reads z-score, replicate 1 = 0.41.
CG9581 [DRSC20695] scored z-score, replicate 1 = 0.24.
Against CG9581 [DRSC22247] the deposit lists z-score, replicate 1 = -0.42.
CG13920 [DRSC08389] showed z-score, replicate 1 = 0.2.
Depletion of PGAP1 [DRSC18286] resulted in: z-score, replicate 1 = 0.15.
CG15210 [DRSC19656] gave z-score, replicate 1 = 0.5.
Knock-down of CG31321 [DRSC13028] gave: z-score, replicate 1 = -0.06.
Silencing of Jon99Fii [DRSC15430] resulted in: z-score, replicate 1 = 0.21.
With knock-down of Dic3 [DRSC06058], the screen gave z-score, replicate 1 = 0.43.
Depletion of CG13280 [DRSC02253] gave: z-score, replicate 1 = 0.26.
Against CG2147 [DRSC18211], the values are z-score, replicate 1 = 0.47.
With knock-down of CRMP [DRSC12073], the record shows z-score, replicate 1 = -0.91.
For CRMP [DRSC12345], the entry reads z-score, replicate 1 = 0.24.
With knock-down of CG7483 [DRSC16249] the results were z-score, replicate 1 = 0.38.
Knock-down of CG7483 [DRSC22432] came out at: z-score, replicate 1 = 2.54.
For Rilpl [DRSC18494] the deposit lists z-score, replicate 1 = 0.25.
Depletion of CG8860 [DRSC07291] resulted in: z-score, replicate 1 = -3.29.
Act79B [DRSC11604] scored z-score, replicate 1 = -0.33.
Silencing of CG15930 [DRSC18107] gave: z-score, replicate 1 = 0.41.
For Atf6 [DRSC04743], the values are z-score, replicate 1 = 0.52.
Atf6 [DRSC04889] gave z-score, replicate 1 = 0.41.

Records listed so far whose target name begins with A or a:
Act79B [DRSC11604] → z-score, replicate 1 = -0.33
Atf6 [DRSC04743] → z-score, replicate 1 = 0.52
Atf6 [DRSC04889] → z-score, replicate 1 = 0.41

The list goes on:
Against TkR86C [DRSC16880], the entry reads z-score, replicate 1 = 0.36.
Against ss [DRSC17069], the entry reads z-score, replicate 1 = 0.6.
Silencing of CG32333 [DRSC08627] gave: z-score, replicate 1 = 0.29.
CG32333 [DRSC08629] scored z-score, replicate 1 = 0.14.
CG3703 [DRSC18172] gave z-score, replicate 1 = 0.51.
Against CG3703 [DRSC18173] the deposit lists z-score, replicate 1 = 0.31.
For CG3703 [DRSC18643] the deposit lists z-score, replicate 1 = 0.27.
Against GABA-B-R1 [DRSC22038], the entry reads z-score, replicate 1 = 0.
Srp19 [DRSC11288] gave z-score, replicate 1 = -0.83.
For Dup99B [DRSC22877], the values are z-score, replicate 1 = -0.67.
AIF [DRSC00696] showed z-score, replicate 1 = 0.35.
For eco [DRSC11006], the entry reads z-score, replicate 1 = -0.83.
CG17732 [DRSC10283] scored z-score, replicate 1 = 0.23.
Depletion of CG4998 [DRSC10466] gave: z-score, replicate 1 = -0.03.
With knock-down of CG4998 [DRSC22911], the record shows z-score, replicate 1 = 1.7.
